The structures given here were assigned with low confidence; some may be wrong.
Biological target: glutathione S-transferase (GST)-linked full-length human Syk protein (Homo sapiens, UniProt P43405)
Test: Syk enzyme assay
Settings: read-out: IC50 of Syk-inhibitory activity; 0.83 nM Syk, time-resolved fluorescence; tested form: HCl

CC(=O)N1CC[C@@H](Nc2nc(Nc3cnc(C)c(-n4nccn4)c3)c(C(N)=O)cc2F)[C@@H](N)C1 (relative stereo)
IC50: < 0.01 µM

CC(=O)N1CC[C@@H](Nc2nc(Nc3ccnc(N4CCOCC4)c3F)c(C(N)=O)cc2F)[C@@H](N)C1 (relative stereo)
IC50: 0.05 to 0.1 µM

CC(=O)N1CC[C@@H](Nc2nc(Nc3cncc(C)c3)c(C(N)=O)cc2F)[C@@H](N)C1 (relative stereo)
IC50: 0.01 to 0.05 µM

Source: US9051310B2, “Nicotinamide derivative or salt thereof” (FUJIFILM Corporation, priority 2011, dated 2015)
